Results are given in words; binding and its absence hold for the method and conditions named. Binding seen in cells or lysates may run through a third protein. Some results given as binding are weak or reduced against the parent protein; the word gives no strength.
How the values were obtained:
[1] = molecular target: GFP-SNF2H (human) (UniProt O60264); assay: co-IP; HEK293 cells overexpressing GFP-SNF2H and HA-DDB2 or Myc-HBO1; immunoprecipitated with anti-HA antibody, anti-Myc antibody and anti-GFP agarose; western blotting
[2] = molecular target: HA-DDB2 (UniProt Q92466); assay: co-IP; ChIP-western blot: HA-DDB2-transfected shCtl cells, mock or 40 J m^-2 ultraviolet, collected after 20 min; formaldehyde cross-linked, sonicated chromatin immunoprecipitated with anti-HA antibody, de-crosslinked, western blotting
[3] = molecular target: endogenous SNF2H (human (endogenous in HeLa)) (UniProt O60264); assay: co-IP; lysates from ultraviolet-irradiated or non-irradiated HeLa cells immunoprecipitated with anti-SNF2H antibody; western blotting; endogenous proteins

Sequences of proteins named here, by UniProt entry; tags and fusion partners are left off.
UniProt O60264: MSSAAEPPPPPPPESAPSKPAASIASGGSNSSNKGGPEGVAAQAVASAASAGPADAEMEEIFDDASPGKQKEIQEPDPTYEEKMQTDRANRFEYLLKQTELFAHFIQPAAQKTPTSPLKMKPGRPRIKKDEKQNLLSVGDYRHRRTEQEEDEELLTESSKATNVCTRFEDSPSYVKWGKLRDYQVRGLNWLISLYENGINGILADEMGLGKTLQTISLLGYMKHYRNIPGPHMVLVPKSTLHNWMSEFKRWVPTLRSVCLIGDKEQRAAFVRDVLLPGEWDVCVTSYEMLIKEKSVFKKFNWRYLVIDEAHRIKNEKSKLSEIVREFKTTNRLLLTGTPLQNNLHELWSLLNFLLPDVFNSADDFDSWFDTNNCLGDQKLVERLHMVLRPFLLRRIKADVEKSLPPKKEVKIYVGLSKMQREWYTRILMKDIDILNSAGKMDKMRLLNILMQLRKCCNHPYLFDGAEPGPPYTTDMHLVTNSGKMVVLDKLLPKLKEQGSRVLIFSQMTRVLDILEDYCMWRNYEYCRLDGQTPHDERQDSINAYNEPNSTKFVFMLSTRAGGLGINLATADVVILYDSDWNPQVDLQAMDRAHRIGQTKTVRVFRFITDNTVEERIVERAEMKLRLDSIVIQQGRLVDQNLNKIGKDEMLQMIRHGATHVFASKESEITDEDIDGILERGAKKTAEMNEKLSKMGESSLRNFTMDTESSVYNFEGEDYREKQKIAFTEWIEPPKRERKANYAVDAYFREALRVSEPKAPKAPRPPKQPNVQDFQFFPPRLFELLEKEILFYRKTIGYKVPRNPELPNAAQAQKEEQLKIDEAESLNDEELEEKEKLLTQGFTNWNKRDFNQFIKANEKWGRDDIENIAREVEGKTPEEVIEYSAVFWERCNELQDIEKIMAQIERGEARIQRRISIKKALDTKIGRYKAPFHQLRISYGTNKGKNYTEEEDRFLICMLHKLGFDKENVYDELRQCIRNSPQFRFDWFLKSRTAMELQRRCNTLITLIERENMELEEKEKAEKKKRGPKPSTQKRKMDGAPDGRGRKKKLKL
UniProt Q92466: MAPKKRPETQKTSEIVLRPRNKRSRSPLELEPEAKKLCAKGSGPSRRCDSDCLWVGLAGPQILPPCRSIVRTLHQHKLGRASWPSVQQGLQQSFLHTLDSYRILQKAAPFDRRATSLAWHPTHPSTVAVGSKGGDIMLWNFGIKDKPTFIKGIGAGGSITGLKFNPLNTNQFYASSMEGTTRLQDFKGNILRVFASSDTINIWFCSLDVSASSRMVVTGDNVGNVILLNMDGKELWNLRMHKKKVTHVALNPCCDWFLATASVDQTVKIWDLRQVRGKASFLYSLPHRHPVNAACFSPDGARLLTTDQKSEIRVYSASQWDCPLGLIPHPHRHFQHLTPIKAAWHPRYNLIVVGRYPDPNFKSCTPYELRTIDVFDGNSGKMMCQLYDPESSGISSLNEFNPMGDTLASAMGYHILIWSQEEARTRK
UniProt O95251: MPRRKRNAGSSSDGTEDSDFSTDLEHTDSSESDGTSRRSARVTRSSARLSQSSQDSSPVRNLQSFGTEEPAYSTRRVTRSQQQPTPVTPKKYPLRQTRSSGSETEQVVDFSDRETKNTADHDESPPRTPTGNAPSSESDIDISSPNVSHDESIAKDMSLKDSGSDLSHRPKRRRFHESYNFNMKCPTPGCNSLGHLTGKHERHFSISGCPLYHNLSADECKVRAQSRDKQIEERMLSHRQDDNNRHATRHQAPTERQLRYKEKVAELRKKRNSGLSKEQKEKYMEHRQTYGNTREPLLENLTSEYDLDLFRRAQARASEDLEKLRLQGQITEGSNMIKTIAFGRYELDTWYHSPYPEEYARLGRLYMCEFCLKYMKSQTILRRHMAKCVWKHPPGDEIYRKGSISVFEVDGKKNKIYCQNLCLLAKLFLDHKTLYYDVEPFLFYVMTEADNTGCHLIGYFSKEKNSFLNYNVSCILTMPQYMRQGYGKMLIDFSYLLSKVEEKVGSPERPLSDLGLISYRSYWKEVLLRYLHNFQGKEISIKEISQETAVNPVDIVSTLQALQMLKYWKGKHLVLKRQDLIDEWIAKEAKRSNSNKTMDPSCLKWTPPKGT

Substance	binding [1]	binding [2]	binding [3]
HA-DDB2 (from UniProt Q92466 1-427)	no binding		
Myc-HBO1 (from UniProt O95251 1-611)	binds weakly		
endogenous HBO1 (from UniProt O95251 1-611)		binds	binds
